Results reported in PubChem BioAssay AID2685 (National Center for Advancing Translational Sciences (NCATS), 2010).
The list shows a part of the results. These are further read-outs of the screen, such as a control signal, another cell line or another target. No call is given for them. Most of these compounds were active or inconclusive in the main read-out, so they are no random draw. The note in brackets gives the kind of curve behind each potency; many fits are weak.

Assay: qHTS Assay for Lipid Storage Modulators in Drosophila S3 Cells;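 on cell number change: cells counted by Cell Tracker Red CMTPX staining in the red channel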
Settings: BODIPY lipid droplet fluorescence, 18-24 h; for cell number change: measured here: cell count max response, cells fed with added oleic acid
How it was run: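 Drosophila S3 cells loaded with oleic acid (400 uM, as added) and compounds at several concentrations; lipid droplets imaged by 488-nm laser-scanning cytometry, 500–530 nm intensity and object ratio to cell channel. Percent activity normalized to 20 uM Triacsin C.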

[1] = measured here: lipid fluorescence (Fed channel) AC50, cells fed with added oleic acid
[2] = measured here: cell number channel AC50, cells fed with added oleic acid

Structure (SMILES) | cell number change [%] | AC50 [1] | AC50 [2]
COc1ccc2c(c1)C(C1=C(O)CC(C)(C)CC1=O)C1=C(CC(C)(C)CC1=O)O2 (stereo not drawn) | 23.4 | 1.46 µM [falling, full curve] | 
CCc1ccccc1N(CC)C(=O)CCc1nc(-c2ccc(C)cc2)no1 | 2.77 | 4.11 µM [falling, full curve, poor fit] | 
C=CCN1C(=NC(=O)CCCC(=O)O)SC2CS(=O)(=O)CC21 (stereo not drawn) | -80.1 | 0.231 µM [falling, full curve] | 18.4 µM [falling, partial curve]
O=C(CC1CCCCC1)N1CCCC(c2nc(-c3ccc(S(=O)(=O)N4CCCC4)cc3)no2)C1 (stereo not drawn) | -5.68 | 0.0058 µM [falling, full curve] | 
COc1cc(/C=C/c2[nH]c(=O)[nH]c(=O)c2[N+](=O)[O-])ccc1OCCC(C)C | -20.4 | 16.4 µM [falling, single point] | 
CCOC(=O)c1cnc(Cc2ccccc2)[nH]c1=O | 60.2 | 29.1 µM [rising, single point] | 14.6 µM [rising, partial curve, poor fit]
CC(=O)NC(c1cc(Cl)c2cccnc2c1O)C1CC1 (stereo not drawn) | 7.05 | 1.16 µM [falling, single point] | 
Cc1ccc(C(=O)C2CCN(CC(=O)NC3CCCCC3)CC2)cc1 | 10.8 | 4.61 µM [rising, full curve, poor fit] | 
O=C(O)c1ccc(Nc2nc3ccccc3nc2NS(=O)(=O)c2cccs2)cc1 | 7.65 | 29.1 µM [rising, single point] | 
CC(=O)Nc1ccc(S(=O)(=O)NCCc2cc3c(C)ccc(C)c3[nH]c2=O)cc1 | 58.6 |  | 16.4 µM [rising, partial curve]
Cc1cc(C(=O)O[C@H]2[C@H](Cc3ccccc3)NS(=O)(=O)[C@H]3C[C@@H]4C=C[C@]23O4)ccc1[N+](=O)[O-] | -5.03 | 1.84 µM [falling, partial curve] | 1.3 µM [falling, partial curve]
NCCOc1cnn(-c2ccccc2Cl)c(=O)c1Cl | 25.2 | 29.1 µM [falling, partial curve] | 
O=C(NC1CC1)C1CCN(C2CCN(C(=O)/C=C/c3cccc(F)c3F)CC2)CC1 | -0.575 |  | 
O=C(CCCc1ccccc1)Nc1ccc(S(=O)(=O)N2CCOCC2)cc1 | -16.9 | 18.4 µM [falling, single point] | 
O=C(CCn1cnc2ccccc2c1=O)Nc1ccc(S(=O)(=O)N2CCCC2)cc1 | -3.48 | 20.6 µM [falling, single point] | 0.731 µM [falling, full curve, poor fit]
CN1CCN(S(=O)(=O)c2ccc(N3CCc4ccccc4C3)nc2)CC1 | -17.5 |  | 
Cc1cccc(C)c1NC(=O)C1CCCN1C(=O)OC(C)(C)C (stereo not drawn) | 4.64 | 29.1 µM [rising, single point] | 
O=C(Nn1cnc2ccccc2c1=O)c1cccc(Cl)c1 | 15.8 |  | 

Structure (SMILES) | cell number change [%] | AC50 [1] | AC50 [2]
COc1ccc(NC(=O)CN(C)S(=O)(=O)c2ccc3c(c2)OCCO3)c2ncccc12 | -0.0153 | 4.61 µM [rising, single point] | 
COc1ccc(NC(=O)c2cc(-c3ccc(OC)c(OC)c3)on2)cc1OC | 46.8 | 1.3 µM [rising, partial curve] | 5.17 µM [rising, full curve]
Cc1ccc2cc3c(N)c(C(=O)Nc4c(C)[nH]c(=O)[nH]c4=O)sc3nc2c1 | 61.5 | 1.64 µM [falling, partial curve] | 6.51 µM [rising, single point]
CC(C)C[C@H](NC(=O)c1[nH]cnc1C(=O)N[C@@H](C)c1ccccc1)C(=O)OCc1ccccc1 | -19.3 |  | 
O=C(NCc1ccccc1)C1CCN(S(=O)(=O)c2cc([N+](=O)[O-])ccc2Cl)CC1 | -4.4 | 25.9 µM [falling, partial curve] | 0.00461 µM [rising, full curve, poor fit]
COCCOc1ccc(C(F)(F)F)cc1NC(=O)c1ccc(F)cc1 | 10.4 | 29.1 µM [rising, partial curve] | 
CCOC(=O)c1sc(Nc2nc3ccc(OC)cc3s2)cc1C | -19 | 29.1 µM [falling, single point] | 
Cc1cc(NC(=O)c2cccc(S(=O)(=O)N(C)C)c2)n(-c2ccccn2)n1 |  | 0.092 µM [rising, full curve, poor fit] | 0.291 µM [rising, full curve]
COc1ccccc1C(=O)NCCC(=O)N1CCCCC1 | 27.9 |  | 4.11 µM [rising, full curve, poor fit]
Cc1cc(NC(=O)CC(C)C)c(=O)n(Cc2cccc(F)c2)c1 | 2.64 | 0.231 µM [rising, full curve, poor fit] | 
CC1(C2CC2)NC(=O)N(CC(=O)N2CCN(S(=O)(=O)c3ccc(F)c(F)c3)CC2)C1=O (stereo not drawn) | -13.6 |  | 
CC(=O)Nc1ccc(OCC(O)CN2CCN(c3ccc(F)cc3)CC2)cc1 (stereo not drawn) | 30.2 |  | 0.0231 µM [rising, full curve, poor fit]
COc1cc(C(C)=O)ccc1OCC(O)CNCC1(N2CCCCC2)CCCCC1 (stereo not drawn) | 12.3 |  | 
Cc1cc(N2C(=O)C3C4CC(c5ccccc5)C(C4)C3C2=O)no1 (stereo not drawn) | -24.2 | 29.1 µM [falling, single point] | 
CC(C)(C)c1ccc(C(=O)O)c(C(=O)c2ccc(C(=O)O)cc2)c1 | -7.68 | 8.2 µM [falling, partial curve] | 
O=C(CC(=O)N/N=C\c1ccccc1)NCCc1ccccc1 | 13.1 | 32.6 µM [rising, single point] | 
COC(=O)c1sc(NC(=O)c2cc(-c3ccccc3)nc3ccccc23)c(C#N)c1C | -24.8 | 0.58 µM [rising, full curve, poor fit] | 
Cc1[nH]c2ccc(C(=O)N3CCCCC3)cc2c1C | 12.7 | 2.59 µM [rising, single point] | 

Structures above containing an NH in an aromatic ring:
Structure (SMILES) | cell number change [%] | AC50 [1] | AC50 [2]
COc1cc(/C=C/c2[nH]c(=O)[nH]c(=O)c2[N+](=O)[O-])ccc1OCCC(C)C | -20.4 | 16.4 µM [falling, single point] | 
CCOC(=O)c1cnc(Cc2ccccc2)[nH]c1=O | 60.2 | 29.1 µM [rising, single point] | 14.6 µM [rising, partial curve, poor fit]
CC(=O)Nc1ccc(S(=O)(=O)NCCc2cc3c(C)ccc(C)c3[nH]c2=O)cc1 | 58.6 |  | 16.4 µM [rising, partial curve]
Cc1ccc2cc3c(N)c(C(=O)Nc4c(C)[nH]c(=O)[nH]c4=O)sc3nc2c1 | 61.5 | 1.64 µM [falling, partial curve] | 6.51 µM [rising, single point]
CC(C)C[C@H](NC(=O)c1[nH]cnc1C(=O)N[C@@H](C)c1ccccc1)C(=O)OCc1ccccc1 | -19.3 |  | 
Cc1[nH]c2ccc(C(=O)N3CCCCC3)cc2c1C | 12.7 | 2.59 µM [rising, single point] | 
